# Library screen at single concentrations

Protein sequences, listed by entry. Tags and fused reporters are not part of them. Residues count along the entry.
UniProt Q4DA54, 1-478: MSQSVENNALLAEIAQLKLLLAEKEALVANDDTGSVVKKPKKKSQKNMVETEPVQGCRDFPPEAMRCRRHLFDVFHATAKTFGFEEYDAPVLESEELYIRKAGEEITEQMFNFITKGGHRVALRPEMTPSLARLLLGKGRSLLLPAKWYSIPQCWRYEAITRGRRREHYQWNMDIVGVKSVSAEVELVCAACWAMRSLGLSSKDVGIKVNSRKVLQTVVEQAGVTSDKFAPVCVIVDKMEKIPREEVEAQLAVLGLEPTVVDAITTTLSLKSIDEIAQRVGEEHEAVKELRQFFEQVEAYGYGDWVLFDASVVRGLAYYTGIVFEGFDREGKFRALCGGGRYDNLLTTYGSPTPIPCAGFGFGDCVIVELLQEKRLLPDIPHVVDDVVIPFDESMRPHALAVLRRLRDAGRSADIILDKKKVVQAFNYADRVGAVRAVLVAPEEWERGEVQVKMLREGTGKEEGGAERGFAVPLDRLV
UniProt P9WPC5, whole entry: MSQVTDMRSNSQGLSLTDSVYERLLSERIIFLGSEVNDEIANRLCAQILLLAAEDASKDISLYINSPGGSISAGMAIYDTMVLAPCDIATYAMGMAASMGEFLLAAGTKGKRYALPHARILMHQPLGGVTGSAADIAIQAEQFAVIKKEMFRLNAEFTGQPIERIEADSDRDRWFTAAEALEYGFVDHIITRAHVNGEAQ
UniProt P9WPC3, whole entry partner: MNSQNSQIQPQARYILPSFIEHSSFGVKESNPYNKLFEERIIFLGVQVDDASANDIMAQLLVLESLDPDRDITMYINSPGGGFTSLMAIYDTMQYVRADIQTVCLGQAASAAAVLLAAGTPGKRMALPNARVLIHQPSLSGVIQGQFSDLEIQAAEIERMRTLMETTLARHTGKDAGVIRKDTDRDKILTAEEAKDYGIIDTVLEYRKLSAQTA
UniProt Q8IDJ8, 1-583: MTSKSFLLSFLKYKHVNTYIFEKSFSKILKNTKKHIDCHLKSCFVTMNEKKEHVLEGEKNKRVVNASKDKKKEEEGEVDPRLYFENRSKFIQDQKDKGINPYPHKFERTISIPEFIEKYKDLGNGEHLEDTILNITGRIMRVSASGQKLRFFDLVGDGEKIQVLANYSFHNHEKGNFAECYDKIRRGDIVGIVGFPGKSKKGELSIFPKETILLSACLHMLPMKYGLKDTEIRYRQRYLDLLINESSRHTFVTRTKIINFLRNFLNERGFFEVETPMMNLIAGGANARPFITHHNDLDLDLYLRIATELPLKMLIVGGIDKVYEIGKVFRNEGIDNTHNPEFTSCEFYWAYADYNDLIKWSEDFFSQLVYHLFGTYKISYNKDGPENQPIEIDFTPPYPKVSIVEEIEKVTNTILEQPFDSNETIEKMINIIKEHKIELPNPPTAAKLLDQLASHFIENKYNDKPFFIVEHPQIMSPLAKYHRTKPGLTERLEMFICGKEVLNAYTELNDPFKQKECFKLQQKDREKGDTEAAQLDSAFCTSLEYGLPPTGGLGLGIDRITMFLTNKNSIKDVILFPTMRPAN

From ChEMBL document CHEMBL3988442, “University of Dundee, Small-Polar-MMV Screening Library” (2021).

Each number is a percent effect as filed.
The controls that fix the scale are not given in the record; negative values are as filed.
The compounds are a random part of those screened.
Two or more numbers in one place are separate tests of the same structure; such repeats can differ widely.
A dash means the value is not listed here; it may have been measured.

Leishmania in macrophages: 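Cell assay of Leishmania donovani living inside macrophages; the read-out is not stated. Concentration: 30 µM. Higher reads as stronger inhibition (inferred: compounds with an IC50 in retests scored well above the rest). Size under these conditions: about 69,000 compounds, about 1,000 of them at 50% or above in at least one test.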
TcHisRS: 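Enzyme assay of histidyl-tRNA synthetase; the read-out is not stated. Target: Histidine-tRNA ligase, Trypanosoma cruzi CL Brener (UniProt Q4DA54). Concentration: 30 µM. Higher reads as stronger inhibition (inferred: compounds with an IC50 in retests scored well above the rest). Size under these conditions: about 69,000 compounds, about 31 of them at 50% or above in at least one test.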
ClpP1P2: 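Protease assay of ClpP1P2, read by the AMC dye that it sets free. Target: ClpP1P2, Mycobacterium tuberculosis (UniProt P9WPC5 and UniProt P9WPC3). Tested at 50 µM. Direction is inferred from only a few compounds that gave an IC50; most scored high, so higher reads as stronger inhibition. Most other retested compounds had strongly negative values. Size under these conditions: about 69,000 compounds, about 10 of them at 50% or above in at least one test.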
Toxoplasma: 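Assay of Toxoplasma gondii numbers, read through their beta-galactosidase reporter with a colour substrate. Tested at 10 µM. The record gives no direction; the compounds picked for IC50 retests had high values, so higher reads as fewer parasites. Size under these conditions: about 67,000 compounds, about 260 of them at 50% or above in at least one test.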
PfKRS1: 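Lysine-tRNA ligase, Plasmodium falciparum 3D7 (UniProt Q8IDJ8). Enzyme assay of the cytosolic lysyl-tRNA synthetase in 384-well plates, read by luminescence. Tested at 30 µM. Direction is inferred from only a few compounds that gave an IC50; most scored high, so higher reads as stronger inhibition. Size under these conditions: about 69,000 compounds, about 49 of them at 50% or above in at least one test.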

Compound | Leishmania in macrophages | TcHisRS | ClpP1P2 | Toxoplasma | PfKRS1
Cc1cccc(C(=O)N2CCC3(CC2)CC(c2cnn(C)c2)CO3)c1 (centres unmarked) | 6.937% | 12.75% | -5.82% | -17.7% | 2.978%
O=C(C[S+]([O-])Cc1cccc(Cl)c1)NC1CCCC1 (centres unmarked) | 13.89% | 9.524% | -1.434% | 0.8999% | 9.996%
COC(=O)N1CCc2ccccc2C1C(=O)NCc1cccs1 (centres unmarked) | -1.472% and -17.26% | 2.062% | -1.179% | 7.979% | 5.534%
CCOCC1CN(Cc2ccoc2)Cc2nn(CC3CC3)cc21.O=C(O)C(F)(F)F (centres unmarked) | 6.257% | - | - | -3.856% | -
Cc1ccc(CN2CCC3(CCC3NC(=O)c3ccn(C)c3)CC2)s1 (centres unmarked) | - | 11.06% | 19.8% | - | 3.683%
O=C(O)CCCN1C[C@@H](c2ccccc2F)[C@@]2(CCCCC(=O)N2)C1 | 6.561% | 6.061% | -10.74% | 8.408% | 1.698%
O=C(COc1cccc(F)c1)N1C[C@@H](CN2CCCC2)C[C@H](CO)C1 | 19.23% | -2.5% | -11.05% | 4.602% | -0.1684%
CCC(=O)c1ccc(OCC(=O)NC(C)c2ncnn2CC)cc1 (centres unmarked) | -1.156% | 0.9662% | -14.21% | -18.87% | 0.1501%
Cc1cccc(N2CC3(COCCN(c4ccncn4)C3)OCC2=O)c1 (centres unmarked) | -8.23% | 4.124% | -4.156% | 15.68% | 0.3388%
COc1ccc(CN2CCCC2)cc1Oc1ccc2c(c1)CC(CN)O2 (centres unmarked) | 46.98% | 8.696% | -30.04% | -15.09% | 5.762%
COc1c(C)cnc(CN(C)C(=O)c2cccnc2N(C)C)c1C | -0.7951% | 1.681% | 12.41% | 2.895% | 16.83%
Cc1nsc(NC(=O)N2CCc3sccc3C2)n1 | -27.59% | 2.513% | -14.31% | 2.661% | 0.3605%
O=C(O)C(F)(F)F.c1coc(CN2CCC3(CC2)COC(COCC2CC2)C3)c1 (centres unmarked) | -4.162% | - | - | 17.2% | -
COc1ccc(CNCC2CCN(CC(C)O)CC2)c2ccccc12 (centres unmarked) | 95.94% | 5.344% | -4.137% | 25.49% | 1.266%
N#Cc1cccnc1NCc1cccc(C(=O)NCC2CCCCO2)c1 (centres unmarked) | 11.73% | 7.895% | -2.171% | 8.219% | 5.64%
CCOCCN1CCO[C@H]2[C@H](OCc3ccccn3)CC[C@@H]21 | - | 4.124% | -10.81% | - | 2.88%
CCn1cc(CN2CCc3nc(N4CCOCC4)nc(O)c3CC2)cn1 | -7.833% | 1.622% | -7.26% | 26.2% | -2.503%
O=C(O)[C@@H]1CN(C(=O)CSCC2CC2)C[C@H]1c1ccccn1 | 12.12% | 6.383% | -0.6919% | -14.86% | 5.451%
Cc1nc[nH]c1C(=O)N1CCCC2(C1)C(=O)N(C)c1ccccc12 (centres unmarked) | 1.421% | 2.97% | -11.92% | 28.3% | 1.264%
Cc1ccc2oc(C(=O)N3CCCC(n4nc(C)cc4C)C3)cc2n1 (centres unmarked) | 20.87% | 1.527% | 11.55% | -10.6% | 4.759%
CC(=O)N1[C@@H](C(=O)NCC2CC2)C[C@@H]2CN(Cc3ccco3)C[C@@H]21 | - | 6.015% | 21.3% | - | -1.774%
Cc1cc(C)c2c(OCC(=O)NCC(O)C(F)(F)F)nn(C)c2n1 (centres unmarked) | 4.839% | 2.051% | -4.547% | 0.1341% | 0.462%
O=C(O)C(F)(F)F.[H][C@@]12COC[C@]1(COc1cccnc1)CN(C(=O)COc1ccccc1)C2 | 29.31% | - | - | -3.948% | -
Cc1cc(NCCCOC(C)C)c2nncn2n1 | -46.73% | 0.8696% | 11.36% | 73.87% | 1.544%
Cc1nc(N2CCCC2)ncc1-c1cc(O)nc(N2CCCC2)n1 | 15.83% | 0.5464% | -4.354% | -5.858% | 0.105%
CN1CC(=O)N(c2ccccc2)CC12CCN(Cc1nccn1C)C2.O=C(O)C(F)(F)F.O=C(O)C(F)(F)F (centres unmarked) | -9.853% and -0.8873% | - | - | -20.99% | -
Cc1nc2c(c(NC(C)C)n1)CCN(C(=O)c1cc[nH]n1)CC2.O=C(O)C(F)(F)F | 4.482% | - | - | -22.53% | -
CN(C)c1nc2sc(C(=O)N3CCNC(=O)CC3)cc2s1 | 22.71% | 0.8929% | -70.9% | -22.9% | 8.949%
O=C(CN1CCN(c2ccc3nncn3n2)CC1)NC1CCCC1 | 10.23% | 0% | -12.92% | 3.03% | 2.504%
O=C(O)c1ccc(S(=O)(=O)Nc2ccc(Cl)c(F)c2)c(F)c1 | 8.885% | 1.504% | -0.3295% | 31.42% | 1.517%
O=C(Cn1nc(-c2ccc(F)cc2)oc1=O)NCc1ccccc1F | 28.33% | 2.959% | -28.44% | 2.47% | -0.8662%

The last 3 entries again:

Compound,Leishmania in macrophages,TcHisRS,ClpP1P2,Toxoplasma,PfKRS1
O=C(CN1CCN(c2ccc3nncn3n2)CC1)NC1CCCC1,10.23%,0%,-12.92%,3.03%,2.504%
O=C(O)c1ccc(S(=O)(=O)Nc2ccc(Cl)c(F)c2)c(F)c1,8.885%,1.504%,-0.3295%,31.42%,1.517%
O=C(Cn1nc(-c2ccc(F)cc2)oc1=O)NCc1ccccc1F,28.33%,2.959%,-28.44%,2.47%,-0.8662%